In all, about 310,000 compounds went through this assay and about 17,000 (5.5%) were called active. Inconclusive results, whose numbers are uncertain, are shown with a selection of clear calls. Calls come from the whole dose curve; as a rule, active = well fitted inhibition curve with a large enough effect; inconclusive = small, poorly fitted or top-dose-only effect, or effect the other way; inactive = no such curve, though single readings can be large or run the other way. Where the call is inconclusive, the potency comes from a doubtful curve fit.
Molecular target: Nuclear receptor ROR-gamma (Mus musculus) (UniProt P51450)
Test: qHTS for inhibitors of ROR gamma transcriptional activity; note: nearly all actives have a fitted effect of over 60% in size
Conditions: Drosophila S2 Gal4-RORgamma UAS-luciferase reporter, 20 h; activity change, negative = inhibition: at 53.6 µM (top of the series)
How it was run: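 A Gal4/UAS one-hybrid system in insect cells: metallothionein-promoter Gal4–ROR gamma fusion plus Photinus luciferase reporter. Copper sulfate 700 uM final, 20 hr ambient incubation, luminescent detection after 10 min with reagent.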
% is set by controls: 0 for no effect and ±100 for the full control effect; potency is the fitted concentration of half-maximal effect.

Amino acid sequences for entries named in this document (tags omitted). A change or cut given only in a name is not applied to a line headed by its entry.
UniProt P51450: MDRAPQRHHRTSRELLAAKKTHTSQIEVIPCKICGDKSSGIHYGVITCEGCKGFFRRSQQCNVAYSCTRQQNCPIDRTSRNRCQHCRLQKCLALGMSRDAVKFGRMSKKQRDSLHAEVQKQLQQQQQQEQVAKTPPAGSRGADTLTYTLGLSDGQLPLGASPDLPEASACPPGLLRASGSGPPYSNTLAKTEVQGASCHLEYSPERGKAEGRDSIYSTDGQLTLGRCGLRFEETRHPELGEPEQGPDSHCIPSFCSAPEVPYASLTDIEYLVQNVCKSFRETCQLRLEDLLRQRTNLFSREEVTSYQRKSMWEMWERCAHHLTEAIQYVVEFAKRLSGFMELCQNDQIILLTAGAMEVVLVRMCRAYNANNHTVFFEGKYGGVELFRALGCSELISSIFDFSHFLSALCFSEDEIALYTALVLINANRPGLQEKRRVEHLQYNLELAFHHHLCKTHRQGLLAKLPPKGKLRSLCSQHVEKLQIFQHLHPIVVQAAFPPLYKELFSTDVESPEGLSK

Activity change, negative = inhibition, inactive:
CN(C(=O)Cn1cnc([N+](=O)[O-])n1)C1CCCCC1 -15.9%, CCN(CC)CCn1nc2c3c(cccc3c1=O)-c1ccccc1-2 -9.87%, N#CC1=C2SCN(c3ccccc3)CN2C(=O)CC1c1cccs1 (configuration not stated) 37.9%, CC(C(=O)O)n1nc(-c2ccccc2)c2ccccc21 (configuration not stated) 2.93%, CCCn1c(-c2ccc(F)cc2)nc2c(N3CCN(CCC(=O)OCC)CC3)nc(C)nc21 -2.21%, C/C(=C\C(=O)Nc1cscc1C)C(=O)O 5.56%, CNC(=S)Nc1cccc(C(C)=O)c1 -13.8%, CCCC(=O)N1CCC(CCC(=O)NC2CC2)CC1 -12.6%, COC(=O)CC1C(=O)NCCN1C(=S)NC(=O)c1ccccc1[N+](=O)[O-] (configuration not stated) -19.7%, CCCNC(=O)NC(=O)CN1CCCC1c1ccc2c(c1)OCCO2 (configuration not stated) 19.3%, Cc1cc(C)cc(NC(=O)c2cccc(NC3=NC4CS(=O)(=O)CC4S3)c2)c1 (configuration not stated) -4.65%, COc1ccccc1C(=O)Nc1ccc(S(=O)(=O)N2CCc3ccccc32)cc1 16.4%, CC(=O)Nc1ccc(/C(C)=N/Nc2nc(N3CCOCC3)nc(N3CCOCC3)n2)cc1 2.94%, COc1cc(Cl)c(CN2CCC(CCC(=O)NC3CC3)CC2)cc1OC -0.742%, COc1ccc(S(=O)(=O)N(CC(=O)NCc2ccncc2)c2ccc(C)cc2)cc1Br 3.63%, Cc1c(N2C(=O)CS/C2=N\N=C\c2ccc(Br)cc2)c(=O)n(-c2ccccc2)n1C 16%, O=C(COC(=O)c1ccc(O)cc1O)NCCN1C(=O)CSC1=O 23.8%, CCCCCCC(=O)Nc1cc2c(C)cc(=O)oc2cc1C 27.2%, O=C(CSc1ncn[nH]1)N/N=C/c1ccc(C(F)(F)F)cc1 10.7%, CC1CN(C(=O)C2(C)CC2(Cl)Cl)CC(C)O1 (configuration not stated) -5.88%

Potency, active:
CC(=O)/C(=N\Nc1cccc(Cl)c1)Sc1cccc2cccnc12 3.16 µM, O=C(Nc1cccc(O)c1)c1cc(-c2cccs2)on1 2 µM, CCCc1nc2ccccc2c(=O)n1/N=C/c1c(C)[nH]n(-c2ccc(C)cc2)c1=O 12.6 µM, CNC(=S)Nc1cc(OC)ccc1OC 11.2 µM, S=C1NCCc2ccccc2C1c1ccccc1 (configuration not stated) 0.224 µM, Cc1[nH]c(=S)c(C#N)c(C)c1Cc1ccc(Cl)cc1Cl 3.16 µM, S=c1[nH]nc(COc2ccccc2)n1/N=C/c1ccccc1Cl 6.31 µM, O=S(=O)(Nc1cc(Sc2cccc3cccnc23)c(O)c2ccccc12)c1ccccc1 1.26 µM, Fc1ccccc1NC(=S)NCCc1ccc(Cl)cc1 8.91 µM

Potency, inconclusive:
O=S(=O)(c1cccc(Cl)c1Cl)N1CCCCC1 0.112 µM [activator, single point], O=C(COc1ccccc1)NC1CCSC1=O (configuration not stated) 35.5 µM [activator, single point], c1ccc(CCn2c(C3CC3)nc3ccccc32)cc1 8.91 µM [inhibitor, partial curve, poor fit], CN(C)c1ccc(C(=O)c2ccc(O)cc2O)cc1 0.316 µM [activator, full curve, poor fit], Cc1noc2ncnc(SCc3ccc(C(F)(F)F)cc3)c12 11.2 µM [activator, partial curve, poor fit], CCN(Cc1ccccc1)C(c1cccc(C#N)c1)c1nnnn1C(C)(C)C (configuration not stated) 5.62 µM [activator, single point], CNC(=O)c1csc(-c2ccc(Cl)cc2)n1 6.31 µM [activator, full curve, poor fit], C/C(O)=C(\N=Nc1cc(C)ccc1O)C(N)=O 17.8 µM [inhibitor, single point], CCOc1ccc(NS(=O)(=O)c2ccc3c(c2)CCN3C(C)=O)cc1 12.6 µM [activator, partial curve], COc1ccc(S(=O)(=O)Nc2ccc3c(c2)n(C)c(=O)n3C)cc1F 5.62 µM [activator, single point], COc1cccc(NC(=O)Nc2ccc3nsnc3c2)c1 10 µM [activator, partial curve], NC(=O)c1nsc(C(=O)N(c2ccccc2)C(C(=O)NCC2CCCO2)c2ccc(F)cc2)c1N (configuration not stated) 31.6 µM [activator, single point], O=C(O)c1cc(S(=O)(=O)Nc2ccccc2Cc2ccccc2)ccc1Cl 20 µM [inhibitor, single point], Cc1ccc(C2CC(c3ccc(Cl)cc3)=NNC2=O)cc1 (configuration not stated) 11.2 µM [inhibitor, single point], C=CCn1c(NCc2c[nH]c3ccccc23)nc2ccccc21 5.62 µM [activator, single point], COc1ccc(/C=N/NC(=O)c2ccccc2O)cc1CN1CCOCC1 15.8 µM [inhibitor, partial curve, poor fit], CN(C)C(C)(C)C#CCCCCC#CC(C)(C)N(C)C 1.58 µM [inhibitor, full curve], COC(=O)C1=C(C)C(c2cccs2)NC(=O)N1C (configuration not stated) 11.2 µM [inhibitor, single point], COc1ccc(NS(=O)(=O)c2cc(NC(=O)c3ccco3)ccc2N2CCCC2)cc1 35.5 µM [activator, single point], Cc1cc(C)cc(NC(=O)CN2CCN(CCN=CC3=C(O)CC(C)(C)CC3=O)CC2)c1 1 µM [activator, full curve], Cc1ccccc1OCC(=O)N/N=C1\SCC(=O)N1Cc1ccccc1 5.01 µM [activator, full curve], O=C(Cn1cnc2c(nnn2Cc2ccccc2F)c1=O)N1CCN(c2ccccc2)CC1 6.31 µM [activator, single point], Cn1cc(/C=C/C(=O)N2CCCC(C(=O)c3ccc(C(F)(F)F)cc3)C2)cn1 (configuration not stated) 22.4 µM [activator, single point], COc1ccc2cc(CN(CC3CCCO3)C(=S)NCc3ccco3)c(=O)[nH]c2c1 (configuration not stated) 25.1 µM [activator, single point], Cc1ccc(-c2nc(-c3cccnc3)sc2CC(=O)Nc2ccc(C)c(Cl)c2)cc1 17.8 µM [activator, single point], O=C(N/N=C/c1cc([N+](=O)[O-])ccc1O)c1ccncc1 15.8 µM [inhibitor, partial curve], COc1cc(-c2ccc(N=Nc3ccc4c(S(=O)(=O)O)cc(S(=O)(=O)O)c(N)c4c3O)c(OC)c2)ccc1N=Nc1ccc2c(S(=O)(=O)O)cc(S(=O)(=O)O)c(N)c2c1O 14.1 µM [inhibitor, partial curve], CCN(CC)CCOC(=O)C(c1ccccc1)C1CCCCC1 (configuration not stated) 22.4 µM [inhibitor, single point], CC(C)(C)c1ccc(OCC(=O)N/N=C/C2CC=CCC2)cc1 (configuration not stated) 22.4 µM [inhibitor, single point], Nc1cccc2c1C(=O)N(Cc1nnc(-c3ccccc3Br)o1)C2=O 31.6 µM [activator, single point], Nc1nc(-c2ccc3c(c2)NC(=O)CO3)cs1 31.6 µM [activator, single point], O=[N+]([O-])c1ccccc1/C=N/n1c(C2CCCCC2)n[nH]c1=S 35.5 µM [inhibitor, single point], Cc1nn(-c2ccccc2)c(C)c1/C=N/NC(=O)CSc1nnc(SCc2ccccc2Cl)s1 35.5 µM [activator, single point], O=C(N/N=C/c1cccnc1)c1cc2ccccc2cc1O 35.5 µM [inhibitor, single point], CN(C)S(=O)(=O)c1cc(NC(=O)c2ccc(-n3ccnc3)c([N+](=O)[O-])c2)ccc1Cl 17.8 µM [activator, partial curve], CC1CCCN(C(=O)c2ccc([N+](=O)[O-])o2)C1 (configuration not stated) 10 µM [inhibitor, partial curve, poor fit], COc1ccc(-c2c[n+](CC(=O)OC3CC(C)CCC3C(C)C)c3n2CCC3)cc1 (configuration not stated) 31.6 µM [inhibitor, single point], CCC(C)c1ccc(OCCn2cc(/C=N/NC(=O)CSc3nnc(C)s3)c3ccccc32)cc1 (configuration not stated) 2.82 µM [activator, single point], Cc1cccc(C)c1N=C1SC(CC(=O)Nc2c(C)cccc2C)C(=O)N1CCc1ccccn1 (configuration not stated) 35.5 µM [activator, single point], CCn1cc(C(=O)O)c(=O)c2cc(F)c(N3CCN(C(=S)NC(=O)c4ccccc4Br)CC3)cc21 35.5 µM [inhibitor, single point], Cc1ccc(CSc2nnc(Nc3ccc(C)cc3)s2)cc1 11.2 µM [inhibitor, partial curve], Cn1cc(CCC(=O)NCc2ccc(Cl)cc2)c2ccccc21 22.4 µM [activator, single point], Cc1ccc(C(=O)N/N=C/c2ccc(S(=O)(=O)O)o2)c(Cl)c1 35.5 µM [inhibitor, single point]

From PubChem BioAssay AID2551 (National Center for Advancing Translational Sciences (NCATS), 2010)
